Measured values from the supplement of paper PMC3334620.
The full ranking holds about 33,000 sequences; the median of “E-score (-0.5 to 0.5)” is about -0.015, and the highest 2% start at about 0.3. This is one part of the list.

Target: T1, Abf1 (UniProt P14164)
T1 sequence: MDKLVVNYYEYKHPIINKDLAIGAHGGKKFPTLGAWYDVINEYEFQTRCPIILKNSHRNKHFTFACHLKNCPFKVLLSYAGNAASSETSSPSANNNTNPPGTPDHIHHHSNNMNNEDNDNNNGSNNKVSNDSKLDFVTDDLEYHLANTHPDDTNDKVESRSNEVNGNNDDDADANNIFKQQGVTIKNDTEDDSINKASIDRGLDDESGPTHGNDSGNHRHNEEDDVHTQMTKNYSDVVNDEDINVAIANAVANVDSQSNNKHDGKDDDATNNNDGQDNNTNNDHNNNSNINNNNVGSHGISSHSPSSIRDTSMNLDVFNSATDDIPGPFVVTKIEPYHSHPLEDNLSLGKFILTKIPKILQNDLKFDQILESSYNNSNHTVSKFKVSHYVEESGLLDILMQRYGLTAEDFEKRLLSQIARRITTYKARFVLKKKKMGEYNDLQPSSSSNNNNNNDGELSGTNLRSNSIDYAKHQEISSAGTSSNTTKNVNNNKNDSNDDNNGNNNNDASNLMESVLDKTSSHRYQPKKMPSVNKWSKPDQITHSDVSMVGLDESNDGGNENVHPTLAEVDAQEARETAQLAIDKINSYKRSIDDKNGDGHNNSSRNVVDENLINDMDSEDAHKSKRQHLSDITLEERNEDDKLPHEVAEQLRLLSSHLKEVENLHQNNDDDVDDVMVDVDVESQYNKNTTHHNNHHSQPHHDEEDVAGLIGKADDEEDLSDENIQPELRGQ
Experiment: PBM E-score (8-mer binding enrichment) (E-score (-0.5 to 0.5)); higher = stronger / more preferred TF binding
Conditions: protein concentration: 200 nM; construct: GST-full length
Procedure, shortened: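 The E-score, a modified Wilcoxon-Mann-Whitney statistic, was computed by the Universal PBM Analysis Suite for every ungapped eight-base word pooled with its reverse complement. Scans behind it were normalised with masliner after bound GST-tagged yeast transcription factors were detected with fluorescent anti-GST. The proteins, at about 100-200 nM, had been applied to universal all-10-mer Agilent arrays made double-stranded by primer extension.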

Sequence	PBM E-score
AGCACAAT	-0.0604
ACACCATC	-0.0484
AAAGACAA	0.102
ACCTGTTC	0.0955
CATGTGGG	-0.135
CACAGTGA	0.109
AACGGTTC	0.0372
ATCTACTG	0.0439
GCACGTTA	-5e-05
ACCGACGT	-0.0248
ACCATAAT	0.0844
CATTCACA	-0.00351
ACTTGCTC	-0.0791
CCCAGGCG	-0.179
CTCTTCTC	-0.179
CATGTTTA	0.0422
AGATGTGA	0.00968
AAGCAATT	0.191
TATGAAGA	0.0705
GCATTTTA	0.0568
CGTGTGAG	0.219
AAAACTCA	-0.0674
ACGGCACT	0.102
GAATGATA	0.397
CATCGACC	-0.0355

In a second layout: results already given.
ACCTGTTC
  PBM E-score = 0.0955
CATGTGGG
  PBM E-score = -0.135
ACCGACGT
  PBM E-score = -0.0248
ACTTGCTC
  PBM E-score = -0.0791

Continued.

Sequence	PBM E-score
ACAGCTAT	-0.111
CCGTCCTA	0.0811
GCTGTTAA	0.0115
CAGTGACG	0.239
ACGCGTTG	0.0895
AGGAATCC	-0.106
CCAGTTCG	0.119
CTTACGCC	-0.0903
ATCGGGTA	-0.0907
TACATCGA	-0.0815
ACGCTGAC	0.0473
CAGGCCCA	-0.359
GTACCAAC	0.168
ATCGAAAC	-0.0871
GCCTAAAA	-0.0529
CCTGCGCA	0.0316
GCCAACCC	-0.305
GAGGTTAA	-0.0379
AGCGATTC	-0.0229
ATTTTATC	0.264
AGAGGCCC	-0.241
ACGCTACC	-0.158
AAATACGA	0.333
ACTCCTTG	-0.079
CTGCTACC	-0.0567

Sequence	PBM E-score
AGTGAACG	0.0418
CCATAGTA	0.036
CAATTACC	0.168
GCTTAGTA	0.0807
ATTCTCGA	0.139
ATCGTGAC	0.255
CTTTCGCA	-0.158
CTTCGGTC	-0.00863
ATCTAAAT	0.0481
CGCCGGAG	0.0442
AACTAAAC	-0.0643
GCCATCGA	-0.072
CAGGAGGC	-0.18
GGGGTCCA	-0.264
ACGAGGCA	-0.0591
CAAGGTAG	-0.0812
CGGTCGTA	0.0721
GCAAAAGC	-0.0503
CGGCAAAA	-0.0905
CACGAGGC	0.0559
GATGTAGC	0.0818
GGAAGTCC	-0.125
ATCAGACC	-0.189
AATATGCA	-0.092
ATCGCAAC	0.0426

Sequence	PBM E-score
AATGAGCT	0.0503
TCTCACAA	-0.0858
ACCTCTTA	0.0377
AAAGGCTC	-0.0956
ATCAAAAC	0.0447
CGTCGATA	0.286
GACTATCA	0.0884
CAGTTGGA	-0.0179
CTGATTCA	-0.235
GAAGAGTC	-0.13
CCCTGATA	-0.0568
AGGGCGAG	-0.208
AGTAATCC	0.0355
ACGAGGGC	0.0879
GCCTCATA	-0.0715
ACGGATGG	0.0326
ATGTTAAA	0.162
CATTGCCC	-0.064
GACAGCAA	0.0485
ACTGGTCG	-0.0382
ACTCAAGC	-0.079
GATCGCAC	0.0529
CTGGACCC	-0.279
ACGATCTA	0.28
CGGTAAAG	-0.0501

A second format for some results above.
Sequence,PBM E-score
AATGAGCT,0.0503
TCTCACAA,-0.0858
ACCTCTTA,0.0377
AAAGGCTC,-0.0956

Later entries

Sequence	PBM E-score
ATCCGCGG	0.0986
CTACCACC	-0.163
GTGACCCA	0.0879
CGTGCACG	0.419
AATTGAAT	0.0581
CCACCACC	-0.111
GATGTTTA	0.0523
ATAATAGA	0.159
CGACCACC	0.0636
CATACATA	0.0675
AATCGAGT	-0.042
ATACACGA	0.179
AGACAGGC	-0.243
AAGGTCCT	-0.181
AGTGTTCG	-0.0474
CGATACCC	0.0289
AATAACGA	0.325
TAAAATTA	0.165
AGAACCCG	-0.194
ATTTATCC	0.317
TCATAACA	0.117
ATCTCTAA	0.0536
CCTTACGA	0.0463
GAAATTAA	0.177
CACTCTCA	0.00441

Sequence	PBM E-score
ACAGATCA	0.188
GGCGTGGA	-0.174
CACATAGA	-0.0932
CACAGACC	-0.0678
CTCCGTTC	-0.0907
AATCTAGC	-0.181
GCATCAGC	-0.113
TCCCAAAA	0.0198
TAGCATCA	0.0286
AATCTGAA	-0.124
CGTCTCGC	-0.021
AGCAACTC	-0.135
ACGGCCAA	-0.0291
CAAGCAGG	-0.35
GGGCTAGA	-0.192
AATGCTAT	0.164
AAACCGTC	0.0248
TACTTCGA	0.178
ACGTAAAC	-0.125
AGGCATGA	-0.0285
TCGAAAAA	0.157
ACTCCTCC	-0.152
TCTCCTAA	-0.048
AAGCCTCA	-0.303
AACAGCGC	-0.169

Sequence	PBM E-score
GGTTCCAA	-0.0572
ACAACTAG	-0.289
CAAATGCC	-0.272
CCGAGCGA	0.0102
GGGATAAC	0.0508
AATAGGCT	0.0202
AAGACCCG	-0.189
CCTGTTGC	-0.0345
GTCGGCAA	0.0394
GGGTCTCA	-0.242
CTAATTGC	-0.0653
CAGCGCCC	-0.101
GACCCCGA	-0.181
GGGTGGAC	-0.189
CGATTTGA	0.0357
AGCTGCAA	-0.319
ACCGACTA	-0.297
ACTTTATC	0.214
GGGCCTCA	-0.207
GGAGCTTA	-0.248
GAACTCCC	0.011
AAGTCACA	0.125
